This is an account of results in publication PMC11165795.

By UniProt entry, the sequences of proteins in these tests, tags left out.
UniProt Q9Y4K3: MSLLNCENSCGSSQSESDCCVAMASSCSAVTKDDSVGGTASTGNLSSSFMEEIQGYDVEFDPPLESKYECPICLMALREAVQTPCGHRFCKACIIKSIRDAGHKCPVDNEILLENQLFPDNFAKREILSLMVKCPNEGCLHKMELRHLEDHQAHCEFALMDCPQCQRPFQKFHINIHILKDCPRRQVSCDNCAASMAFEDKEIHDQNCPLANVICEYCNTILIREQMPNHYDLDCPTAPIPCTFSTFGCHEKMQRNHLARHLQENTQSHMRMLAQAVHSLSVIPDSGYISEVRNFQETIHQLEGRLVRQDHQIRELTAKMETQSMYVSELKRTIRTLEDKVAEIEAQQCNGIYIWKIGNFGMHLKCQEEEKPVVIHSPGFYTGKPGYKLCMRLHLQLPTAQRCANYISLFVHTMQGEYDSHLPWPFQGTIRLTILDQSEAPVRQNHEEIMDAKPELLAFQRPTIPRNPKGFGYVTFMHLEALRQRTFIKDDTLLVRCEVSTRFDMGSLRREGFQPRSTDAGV

Results are given in words; binding and its absence hold for the method and conditions named. Binding seen in cells or lysates may run through a third protein. A yes stands for co-enrichment or nearness to the bait. Other partners may have been found. Tags and fused reporters may be left off the sequences shown.

This experiment deals with T1, HA-DERL1 (Derlin-1) expressed in ZR-7530 and MDA-MB-231 cells (human) (UniProt Q9BUN8).
T1 sequence: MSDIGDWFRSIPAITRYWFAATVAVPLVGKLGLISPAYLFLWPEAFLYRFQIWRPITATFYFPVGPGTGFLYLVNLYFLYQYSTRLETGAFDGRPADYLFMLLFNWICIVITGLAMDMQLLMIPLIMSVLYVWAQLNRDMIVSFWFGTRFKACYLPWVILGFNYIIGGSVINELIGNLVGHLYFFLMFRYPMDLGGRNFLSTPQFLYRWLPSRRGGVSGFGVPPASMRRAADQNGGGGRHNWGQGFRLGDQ
Description: affinity purification with mass spectrometry; HA-DERL1 transfected into ZR-7530 and MDA-MB-231 cells; HA-binding magnetic beads; LC-MS/MS (Q Exactive).

Consider “tumor necrosis factor receptor-associated factor 6 (TRAF6), endogenous in ZR-7530 and MDA-MB-231 cells (from UniProt Q9Y4K3 1-522)”, for which the binding entry is reported as “binds”.
